# Test results reported in publication PMC7819943, “Rice protein-binding microarrays: a tool to detect cis-acting elements near promoter regions in rice”.
# The list shows a part of the results.
# Biological target: T1, OsSMF1 (Oryza sativa, UniProt Q6ZLB0 1-436)
# T1 sequence: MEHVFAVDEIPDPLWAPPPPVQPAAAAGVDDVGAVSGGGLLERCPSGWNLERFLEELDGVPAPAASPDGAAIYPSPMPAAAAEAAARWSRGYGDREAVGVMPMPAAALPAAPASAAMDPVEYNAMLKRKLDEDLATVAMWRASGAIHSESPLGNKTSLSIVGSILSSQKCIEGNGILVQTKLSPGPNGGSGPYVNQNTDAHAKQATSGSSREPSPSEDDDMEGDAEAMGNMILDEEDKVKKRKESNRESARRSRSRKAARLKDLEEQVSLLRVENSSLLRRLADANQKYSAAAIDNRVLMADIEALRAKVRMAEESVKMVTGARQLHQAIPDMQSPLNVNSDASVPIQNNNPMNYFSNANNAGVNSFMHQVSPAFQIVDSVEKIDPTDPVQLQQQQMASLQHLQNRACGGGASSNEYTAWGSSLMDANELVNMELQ
# Experiment: protein-binding microarray (RPBM); PBS, 2% BSA, 51.3 ng/ul salmon testes DNA, 50 uM zinc acetate, 200 nM TF, 25 C, 1 h; high values mean tight binding
# Settings: protein: recombinant; tags: N-terminal polyhistidine and DsRed monomer fusion (pET32a); chain copies: 2; label: CyDye5-dUTP incorporated in the synthesized complementary strand; 3' TTTTT single-stranded linker to array surface; dsDNA, one strand shown
# How it was run: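 The binding signal is fluorescence intensity per feature, in arbitrary units, read on an Axon 4000B scanner. Polyhistidine- and DsRed-tagged transcription factors (N-terminal fusions) from E. coli BL21-CodonPlus were purified on Ni–NTA and applied at 200 nM for 1 h at 25 °C to a double-stranded, BSA-blocked custom Agilent array in buffer with 50 µM zinc acetate.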
row,Sequence,binding signal
1,ACGGTGGAGTGGTCGAGTGGATAAGGATTCCACATCGACGCGGAGTCACCTAGTGCAG,3510 fluorescence intensity (a.u.)
2,AAGCGCCAAGCCAGGCAGCTGAGTCAAACATACGCGGTCCCGGAGTCACCTAGTGCAG,4580 fluorescence intensity (a.u.)
3,TGCTCCATTATTGTGCTCCATGTCGACACAAAGCGAACAACGGAGTCACCTAGTGCAG,3430 fluorescence intensity (a.u.)
4,AGTTATTTTGGTAGTCGAGAATTGTGATGTTATTTCATTCCGGAGTCACCTAGTGCAG,20400 fluorescence intensity (a.u.)
5,GGGATTAGGGATGTCATACATGACTCGACGCAGAGCTGAGCGGAGTCACCTAGTGCAG,4440 fluorescence intensity (a.u.)
6,GATTAAAACCAAAACTCATGATGGAAGTGGATGCATTTGCCGGAGTCACCTAGTGCAG,25500 fluorescence intensity (a.u.)
7,GGAGTTGGTAGCGGCATCAGATTAGTAAATTTTACCGCGGCGGAGTCACCTAGTGCAG,3910 fluorescence intensity (a.u.)
8,ACCCACGCACTCACTGACGATGCAATGCGGCCATATGCTACGGAGTCACCTAGTGCAG,3240 fluorescence intensity (a.u.)
9,ATAAGTACGAATACTAAGTACGTGTGTGTTTGGAGGGTGTCGGAGTCACCTAGTGCAG,4340 fluorescence intensity (a.u.)
10,CGTGGACCCACCTAGGTGGGGCCCACCGTCAGTGGGAGATCGGAGTCACCTAGTGCAG,3940 fluorescence intensity (a.u.)
11,TAGGTTTGTCCTGAAAACCTTCCGTTTTGCCCACAAGACGCGGAGTCACCTAGTGCAG,5380 fluorescence intensity (a.u.)
12,TCTCGCACTTTACACGTGGAATATGTAATTTGTTTTGTTACGGAGTCACCTAGTGCAG,7060 fluorescence intensity (a.u.)
13,CCTCCGACATCTCCAGCCAATTCCAGCTCAGCTCTCGCCGCGGAGTCACCTAGTGCAG,4150 fluorescence intensity (a.u.)
14,GCATACTGCTAGTGTATACACGTACGTATACGGGAGTAGTCGGAGTCACCTAGTGCAG,5410 fluorescence intensity (a.u.)
15,CTGCGAGGTGGTGGGAGGAAGCGGAAGCCGACGAGGAGCGCGGAGTCACCTAGTGCAG,25400 fluorescence intensity (a.u.)
16,ACGCACACACACACACACGCTGACACACGAGACGAACACTCGGAGTCACCTAGTGCAG,4700 fluorescence intensity (a.u.)
17,ATTTATAATATTGCTGATTTTCCCGAGCTGTTACAACTCCCGGAGTCACCTAGTGCAG,3260 fluorescence intensity (a.u.)
18,GGATAAAGGATAATGTACAGTAAGATGATCTAACGCCATGCGGAGTCACCTAGTGCAG,3370 fluorescence intensity (a.u.)
19,CATTTGTGTTGATGTGTGTTGTGCTGGCTTATTTCATGTACGGAGTCACCTAGTGCAG,3920 fluorescence intensity (a.u.)
20,TCACATCCACGTATATTCCCTTCCCCTTCTCCAACCTTTCCGGAGTCACCTAGTGCAG,9390 fluorescence intensity (a.u.)
21,CTCCTCCTCCTCGTCATCGTCATCACCAGCACACACCCGACGGAGTCACCTAGTGCAG,4510 fluorescence intensity (a.u.)
22,TTCCTATCATCTAAGGTAACCCTTGGTCATCACCGATTCACGGAGTCACCTAGTGCAG,3780 fluorescence intensity (a.u.)
23,GGGACCACCAACCTCCATGACACGTCAGCGGCACATCCGCCGGAGTCACCTAGTGCAG,26000 fluorescence intensity (a.u.)
24,TGCCATTGCCATTGGACACATCATCGCCATTTCTGACACTCGGAGTCACCTAGTGCAG,8500 fluorescence intensity (a.u.)
25,ATTCTCGACCGAAACTGACGTCGCCGCAGTGGTGCAGCCGCGGAGTCACCTAGTGCAG,3590 fluorescence intensity (a.u.)
26,GCGTATAAATACCGTGGCGTGGCGTGGCGCGGCACGGGACCGGAGTCACCTAGTGCAG,3420 fluorescence intensity (a.u.)
27,AGTTAATGTATGTATGTGTGTTTTATATTATGAGACATTACGGAGTCACCTAGTGCAG,3200 fluorescence intensity (a.u.)

row,Sequence,binding signal
1,ATCATCCCATCCCATCTCATCCGTCCATCCGCCAACTCATCGGAGTCACCTAGTGCAG,5490 fluorescence intensity (a.u.)
2,CATCATCGTCAAGGCTGTGAACGCCGCCACCAGGGGCGCCCGGAGTCACCTAGTGCAG,9700 fluorescence intensity (a.u.)
3,GGCTCATGCAACCAGCGAGGGCAGCCACGTGGGTCGTGTACGGAGTCACCTAGTGCAG,9880 fluorescence intensity (a.u.)
4,AATAGTTTGGGACGTGTCTTCTCCGTCATTAGACTTCAAGCGGAGTCACCTAGTGCAG,6910 fluorescence intensity (a.u.)
5,ACAGTCGCCTTCTCCATCGTCTCGTCTTGGTAGGTGGTGGCGGAGTCACCTAGTGCAG,17800 fluorescence intensity (a.u.)
6,CACCAAGTATGATGGGCCCATGGCCAATGATAATACCTCGCGGAGTCACCTAGTGCAG,29800 fluorescence intensity (a.u.)
7,GCCCACTCGTCGGTGTCCCGTGTCCGCCACGCTCTCGCCACGGAGTCACCTAGTGCAG,3270 fluorescence intensity (a.u.)
8,TGGATCGTGTGGGTGACTCGGAGCTGAGCTGGGACCCACTCGGAGTCACCTAGTGCAG,3390 fluorescence intensity (a.u.)
9,ATTTTCGTCGCGTCAACTTATATACGAAAGTTAATTAATGCGGAGTCACCTAGTGCAG,3290 fluorescence intensity (a.u.)
10,AAAGATTGCCGAGTTTAATTGCAATCAATTACGGGAAGATCGGAGTCACCTAGTGCAG,33200 fluorescence intensity (a.u.)
11,TTTGTTTCGTTGTGTTAGAATATGTCATATTTCTTCATTACGGAGTCACCTAGTGCAG,3280 fluorescence intensity (a.u.)
12,AGGTTCTTGACTCACCAGACCCATTTGTTGCCTCAGCCACCGGAGTCACCTAGTGCAG,4350 fluorescence intensity (a.u.)
13,AGCGCGGGGCGGCGTTCGCGTCGCGCCCGCGCGGCGTCAGCGGAGTCACCTAGTGCAG,4260 fluorescence intensity (a.u.)
14,ATATATATATATATATATATGTATGCATATATATGTATTGCGGAGTCACCTAGTGCAG,3440 fluorescence intensity (a.u.)
15,CTGCAACGTTTGGAGTTCCGCCATCAGACAAATTCCACCCCGGAGTCACCTAGTGCAG,3210 fluorescence intensity (a.u.)
16,TGTATTTCCCACACAGATCCACGGCAACTGTCAGCAACATCGGAGTCACCTAGTGCAG,4290 fluorescence intensity (a.u.)
17,CGCACCGACCAAGCTGAGTGACGCGTCACGGCCCAGTTGACGGAGTCACCTAGTGCAG,5740 fluorescence intensity (a.u.)
18,GCCACACGATTTCTTCTGTGACGTGTGGCGTGAGATAACTCGGAGTCACCTAGTGCAG,4160 fluorescence intensity (a.u.)
19,TAGTAACTATAAATCAATGGTTAAGATTTCTTTCAGTCCTCGGAGTCACCTAGTGCAG,3620 fluorescence intensity (a.u.)
20,CGAAATCTTTCCGTCACGGGCCATTTACGTGGCAGATCTTCGGAGTCACCTAGTGCAG,12300 fluorescence intensity (a.u.)
21,TCGCAACAACAAGAATGATGATGGCATGACGAAAATGCTACGGAGTCACCTAGTGCAG,3570 fluorescence intensity (a.u.)
22,AATACTCTGCAGTTCAGTCACGGGCAGAGTACACAGCTTACGGAGTCACCTAGTGCAG,20900 fluorescence intensity (a.u.)
23,TAAGCAAGCTAGCTTGATGCAGCAGCAAGAAAGCAATAATCGGAGTCACCTAGTGCAG,26200 fluorescence intensity (a.u.)
24,TTTGATACCTATCAGCTGGTCAGCTCTGATCTTCCTGTTTCGGAGTCACCTAGTGCAG,3720 fluorescence intensity (a.u.)
25,TGTCAACCACACGTTTCTCTGACTGTACATCAGAGAGTGTCGGAGTCACCTAGTGCAG,11500 fluorescence intensity (a.u.)
26,TGGGCCGCGAAATTGGCAAGCGGCCAAGCGGGTGCGTGAGCGGAGTCACCTAGTGCAG,3200 fluorescence intensity (a.u.)
27,GAATATGTACGTGTGACTCCATCAGCAGTCACCTAGCCAGCGGAGTCACCTAGTGCAG,4360 fluorescence intensity (a.u.)
